The text below walks through data of paper PMC6113226.

Results are given in words; binding and its absence hold for the method and conditions named. Binding seen in cells or lysates may run through a third protein. For part of these data: A result given as binding can be weak or reduced; the word gives no strength. Where a sequence is shown, tags or fusion partners need not be part of it.

Common to all, as to experiment: co-IP; lysates of Xenopus gastrula (stage 10) embryos injected with RNAs of tagged proteins; ice-cold TNSG buffer (20 mM Tris-HCl pH 7.5, 137 mM NaCl, 1% NP-40); IP 8 h, 25 embryo equivalents, anti-Flag, HA or V5-agarose; western blot; in some panels Dsh2-MO, Dsh2-MOR RNA, caFGFR or EphB-ΔC RNAs co-injected
On the technique in general: Immunoblotting shows a protein as a band on a membrane.

In test [1] the target is ephrinB2-Δ4-HA (ephrinB2 mutant that lacks the PDZ-binding motif) (Xenopus).
Test [2] concerns the target Rab5.
In test [3] the target is Rab35.

B1: TBC1d24-V5 (wild-type Xenopus TBC1d24, V5-tagged) (protein, UniProt A1A5K6 1-562)
chain: MDEAEYGRFVDWDKMEAGGQEQSPKVLSCTDFQELKQMARQGHWAKSHTLRAKVYQKLIKEIPCRTVTPDASVYRDIVGKIVGKRSASSLPLPEFVDDRQIPSYSLNSEGTGAVRKIISCISNQFPDISFCPALPSLVALLLHYSQDEAECFENVSRILACNDPNRRLVDQTFLAFESSCMTFGDLAGKYCQGPHKLMVAVSEDVLELYSDWQRWIFGELPFAYITRVFDVFLVEGYKVLFRVALALLKFFHKVRGGQPMESNNVKRDLQMFVRDLNKCVTPEKLLEKAFAIRLFSRKEIQLLQMANEKALQQKGITVKQKRQNVHLAVHAENFTSEIVSVKEMRDIWSWIPERFALSQPLLLFTNREHGNSLSRFYLHCEGHEPTLLLIKTTNQEVCGAFLSTDWSERKRSGNKLSFFGTGECFVFRLQPEVERYEWVVIKHPELGKVNSSSADKEANSSQSDKDGIDPSSRLSPFLATRHFNLPSKTASMFMAGSIDCIIIGGGDGQALYLDPDLNYGRTSHCNTFNNQPLCSETFQISIIEVWGFKDNMNNDGAHSALH
Consider B1, for which the results for the binding result in test [1], in test [2] and in test [3] were “no binding”, “binds” and “binds”, respectively.
